Measured values reported in patent publication US4110626A, “Method for improving the quality of the fragrance of perfumes using aliphatic dibasic acid diesters” (Shiseido Co., Ltd., priority 1976, dated 1978).

Test: Diluting effect: fragrance change evaluated by a panel of five expert perfumers
Design: key: O: Almost no change occurred; Δ: Somewhat changed?; ×: Changed

Compound | FC (Fragrance change) (perfume: Coumarin) | FC (Fragrance change) (perfume: Heliotropin) | FC (Fragrance change) (perfume: Ionone) | FC (Fragrance change) (perfume: Laurinal) | FC (Fragrance change) (perfume: Limonene) | FC (Fragrance change) (perfume: Linalool) | FC (Fragrance change) (perfume: Linalyl Acetate) | FC (Fragrance change) (perfume: Musk Ketone) | FC (Fragrance change) (perfume: Resinoid Olibanum) | FC (Fragrance change) (perfume: Ylang Ylang)
dipropylene glycol | O | O | O | O | O | O | O | O | O | 
CC(C)COC(=O)CCCCC(=O)OCC(C)C [DIBA, diisobutyl adipate] | O | O | O | O | O | O | O | O | O | 
CC(C)CCOC(=O)CCCCC(=O)OCCC(C)C (single isomer, unassigned) [DIAA, diisoamyl adipate] | O | O | O | O | O | O | O | O | O | 
CCOC(=O)c1ccccc1C(=O)OCC [Diethyl Phthalate, diethyl phthalate] | O | O | O | O | O | O | O | O | O | O
O=C(OCc1ccccc1)c1ccccc1 [Benzyl Benzoate, benzyl benzoate] | O | O | O | Δ | O | O | O | O | O | O
OCc1ccccc1 [Benzyl Alcohol] | Δ | × | Δ | × | Δ | Δ | Δ | × | Δ | 
